Measured values published in PMC7819943, “Rice protein-binding microarrays: a tool to detect cis-acting elements near promoter regions in rice”.
Some of the results follow.

Protein sequences, listed by entry. Tags and fused reporters are not part of them.
UniProt Q0JBA9, entry or part of it: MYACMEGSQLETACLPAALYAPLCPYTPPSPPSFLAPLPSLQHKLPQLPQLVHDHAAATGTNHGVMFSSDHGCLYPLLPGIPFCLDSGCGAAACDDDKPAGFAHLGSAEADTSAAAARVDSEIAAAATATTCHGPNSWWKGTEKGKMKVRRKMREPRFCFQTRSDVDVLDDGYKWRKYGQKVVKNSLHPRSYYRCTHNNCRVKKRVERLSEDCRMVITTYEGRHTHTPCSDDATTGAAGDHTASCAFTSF

Each sequence was assayed against OsWRKY34 (Oryza sativa, UniProt Q0JBA9 1-250) (assay: protein-binding microarray (RPBM); PBS, 2% BSA, 51.3 ng/ul salmon testes DNA, 50 uM zinc acetate, 200 nM TF, 25 C, 1 h; high values mean tight binding). Conditions: protein: recombinant; tags: N-terminal polyhistidine and DsRed monomer fusion (pET32a); label: CyDye5-dUTP incorporated in the synthesized complementary strand; 3' TTTTT single-stranded linker to array surface; dsDNA, one strand shown.
Outline: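 Binding signal here means per-feature fluorescence intensity in arbitrary units. The values were read on an Axon 4000B scanner after a custom Agilent array, double-stranded by primer extension with Cy5-dUTP, was incubated with 200 nM protein at 25 °C for 1 h in PBS with 2% BSA, salmon testes DNA and 50 µM zinc acetate, then washed. The proteins were transcription factors with an N-terminal polyhistidine tag and DsRed, expressed in E. coli BL21-CodonPlus and purified on Ni–NTA.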

| Sequence | binding signal |
| --- | --- |
| CCCCGTAGTCGGCATCCGTGCGGCCTCAGCACACCTCCTCCGGAGTCACCTAGTGCAG | 8210 fluorescence intensity (a.u.) |
| ATATTTTAGATGCTAACTGTTAATCAAGTTCTTTTATACACGGAGTCACCTAGTGCAG | 9170 fluorescence intensity (a.u.) |
| GTGGAGACGTGGGACGTCGCGCGGGTATCGGGTGGGGATGCGGAGTCACCTAGTGCAG | 8580 fluorescence intensity (a.u.) |
| TCCTCTTCATGCGATGCGAGCTCTCCTCTCGTTTCCTCTCCGGAGTCACCTAGTGCAG | 10000 fluorescence intensity (a.u.) |
| CCCGTGAACACATCCTCCGCCGCCGCCGCCGCCGATCTCCCGGAGTCACCTAGTGCAG | 9360 fluorescence intensity (a.u.) |
| GGCTCCTCGCGTAGTGCCCTTGCAGCTTCACCTCATCCACCGGAGTCACCTAGTGCAG | 8310 fluorescence intensity (a.u.) |
| AGTGTATCTTGTCAGTATTAATTCCAGTCAGCCATGAATTCGGAGTCACCTAGTGCAG | 8720 fluorescence intensity (a.u.) |
| CTCGCCGATAAAAAGGACACCGAGGCTCGGTGAGGTTGACCGGAGTCACCTAGTGCAG | 8590 fluorescence intensity (a.u.) |
| TGGTTGTCTGGTCATTCGTGCTTTCCTTTTTCCTTTGTCTCGGAGTCACCTAGTGCAG | 11900 fluorescence intensity (a.u.) |
| CCTGAAGGAGTTTGGGCTCGCCGCCTCCACCTCATCGTCTCGGAGTCACCTAGTGCAG | 8720 fluorescence intensity (a.u.) |
| CCCTATCCCCTCATCTCACTGCAGCTTTCCACTATACTACCGGAGTCACCTAGTGCAG | 8440 fluorescence intensity (a.u.) |
| CAACTGTTCTCTTTTATTGGTTCAACCGGATTATATCCGGCGGAGTCACCTAGTGCAG | 8490 fluorescence intensity (a.u.) |
| TTTCATTTGCAAATCCCATAGTTCCATTCCAATCCCATGACGGAGTCACCTAGTGCAG | 8930 fluorescence intensity (a.u.) |
| GTAAATTTTTCCTTGCCTTATCCTACACCCAGGCCTAGATCGGAGTCACCTAGTGCAG | 8400 fluorescence intensity (a.u.) |
| CCGTCCGTCTTATTTGAATTTTTTTAAAAATTAGTACTTTCGGAGTCACCTAGTGCAG | 8970 fluorescence intensity (a.u.) |
| CTATCTCTGTTTACCTTTTCTCATAGATTTTTATTCGCGCCGGAGTCACCTAGTGCAG | 9250 fluorescence intensity (a.u.) |
| TCTTGGGCTGGGTCTGCTGGGATTTATGTTTACAATTGTTCGGAGTCACCTAGTGCAG | 14200 fluorescence intensity (a.u.) |
| CTCAGCTCAGCTGCATGCTGCTGAGTGGCTGGGTGGGGTACGGAGTCACCTAGTGCAG | 9080 fluorescence intensity (a.u.) |
| ACCACCACGCCACGCGACGCGAGGCTCCGCGCGCATCGCGCGGAGTCACCTAGTGCAG | 8660 fluorescence intensity (a.u.) |
| GCGCTCGCGCGGCGGAGATCGGCTGCCACCGCGGGCGGGACGGAGTCACCTAGTGCAG | 9000 fluorescence intensity (a.u.) |
| CCACCTCCACCGACGCCGCCGTCGTGTCGCCGTCTCCGAGCGGAGTCACCTAGTGCAG | 8750 fluorescence intensity (a.u.) |

| Sequence | binding signal |
| --- | --- |
| CTGACTATTGTACTATTATTATTGTTACCTTCATCTTAAACGGAGTCACCTAGTGCAG | 8140 fluorescence intensity (a.u.) |
| CAAAGTTGTGTGTTGTGAAGTGTGAAGGAGAGCTCTATTTCGGAGTCACCTAGTGCAG | 8610 fluorescence intensity (a.u.) |
| CATGCTTCCTTGTCCCATTACTACATCGTCGTTGTGTTCACGGAGTCACCTAGTGCAG | 8750 fluorescence intensity (a.u.) |
| TGGGTCATTTATTGATTATTGTATTATTGTTCCTTATATTCGGAGTCACCTAGTGCAG | 8710 fluorescence intensity (a.u.) |
| CGCGCGCACCTACCTACCGTGAAATTTTCCCTTTTCTCCGCGGAGTCACCTAGTGCAG | 8460 fluorescence intensity (a.u.) |
| AAAAAAGGCGCACACATGTACCCATTATCCATAAGTTAACCGGAGTCACCTAGTGCAG | 8030 fluorescence intensity (a.u.) |
| GTTCCATTTCCGCCTTGCTCGAGCCAGCAACCAAACTGCACGGAGTCACCTAGTGCAG | 9220 fluorescence intensity (a.u.) |
| AAATACCGTTTCGTTTCCACCGTTTTTACTCCGATATTTTCGGAGTCACCTAGTGCAG | 11700 fluorescence intensity (a.u.) |
| GTCCAAAATGTATCTTCCTGTGTTTTGAATTCCATTGTTTCGGAGTCACCTAGTGCAG | 10800 fluorescence intensity (a.u.) |
| CTTTGGGAGTCGCACGCTTTCACCCTCTTCCACCTCTCGCCGGAGTCACCTAGTGCAG | 9260 fluorescence intensity (a.u.) |
| AGTTTGGTTACATGTCAGGCTGCATTTTTTACATTGATCACGGAGTCACCTAGTGCAG | 9470 fluorescence intensity (a.u.) |
| CTCTCCTCTCCGGTCATCTCATATATACGTATCTATATCGCGGAGTCACCTAGTGCAG | 8520 fluorescence intensity (a.u.) |
| GCCATGGTTTTCCGCACCCAACTTTAACCGTTCGTCTTATCGGAGTCACCTAGTGCAG | 9060 fluorescence intensity (a.u.) |
| ATCAGGCGGGTATTTTGGATATTTAGGTTTAGGGAGGAGGCGGAGTCACCTAGTGCAG | 8480 fluorescence intensity (a.u.) |
| TCTTAGTTTTGGCCATTTGCCATTGACTCTGTCCTTTTCTCGGAGTCACCTAGTGCAG | 9680 fluorescence intensity (a.u.) |
| TCCGGTTTAGTTAGTCCCTTTTTGGCCTATATTCCTCTAACGGAGTCACCTAGTGCAG | 13400 fluorescence intensity (a.u.) |
| TGACGGGGATGGTTAATATCTACTCACCATGAGGAATAAACGGAGTCACCTAGTGCAG | 8630 fluorescence intensity (a.u.) |
| CGTCTTCTATGTCGGCCCCTACCGGCCCGGTTTCCCTGCACGGAGTCACCTAGTGCAG | 8790 fluorescence intensity (a.u.) |
| GCCGCCGCCGCCACCATCGCCGGCGCGTCACAGTCCACCACGGAGTCACCTAGTGCAG | 8070 fluorescence intensity (a.u.) |
| TAGCTGATACTAGTGTGTTTTCTTTCTTGGTTGCTTTGATCGGAGTCACCTAGTGCAG | 9940 fluorescence intensity (a.u.) |
| AACAACCACCACCGCCTCTGCCTCACCACCGTCCGAGTCGCGGAGTCACCTAGTGCAG | 8820 fluorescence intensity (a.u.) |

Reformatted as tab-separated lines: part of the list above.
Sequence	binding signal
ATATTTTAGATGCTAACTGTTAATCAAGTTCTTTTATACACGGAGTCACCTAGTGCAG	9170 fluorescence intensity (a.u.)
AACAACCACCACCGCCTCTGCCTCACCACCGTCCGAGTCGCGGAGTCACCTAGTGCAG	8820 fluorescence intensity (a.u.)
